Data as given in article PMC4821352.
These are yes or no findings as the source states them, for the method shown. Binding seen in cells or lysates may run through a third protein. Sequences can lack the tags named with a protein.

Target: Myc-tagged centrin 4 (rat)
Assay: co-IP; transfected HEK293T cells solubilized in IP buffer (20 mM Tris-HCl pH 7.4, 150 mM NaCl, 1% Triton X-100, 0.5% Na-deoxycholate, 0.1% SDS, 1 mM EDTA); 16 h at 4 °C with antibody-coated protein A/G sepharose beads; immunoblot

binding: no binding
B1: GFP-rEag2 (protein, UniProt Q9EPI9 1-988)
chain: MPGGKRGLVAPQNTFLENIVRRSSESSFLLGNAQIVDWPVVYSNDGFCKLSGYHRADVMQKSSTCSFMYGELTDKKTIEKVRQTFDNYESNCFEVLLYKKNRTPVWFYMQIAPIRNEHEKVVLFLCTFKDITLFKQPIEDDSTKGWTKFARLTRALTNSRSVLQQLTPMNKTETVHKHSRLAEVLQLGSDILPQYKQEAPKTPPHIILHYCAFKTTWDWVILILTFYTAIMVPYNVSFKTKQNNIAWLVLDSVVDVIFLVDIVLNFHTTFVGPGGEVISDPKLIRMNYLKTWFVIDLLSCLPYDIINAFENVDEGISSLFSSLKVVRLLRLGRVARKLDHYLEYGAAVLVLLVCVFGLVAHWLACIWYSIGDYEVIDEVTNTIQIDSWLYQLALSIGTPYRYNTSAGIWEGGPSKDSLYVSSLYFTMTSLTTIGFGNIAPTTDVEKMFSVAMMMVGSLLYATIFGNVTTIFQQMYANTNRYHEMLNNVRDFLKLYQVPKGLSERVMDYIVSTWSMSKGIDTEKVLSICPKDMRADICVHLNRKVFNEHPAFRLASDGCLRALAVEFQTIHCAPGDLIYHAGESVDALCFVVSGSLEVIQDEEVVAILGKGDVFGDIFWKETTLAHACANVRALTYCDLHIIKREALLKVLDFYTAFANSFSRNLTLTCNLRKRIIFRKISDVKKEEEERLRQKNEVTLSIPVDHPVRKLFQKFKQQKELRNQGSAQSDPERSQLQVESRPLQNGASITGTSVVTVSQITPIQTSLAYVKTSETLKQNNRDAMELKPNGGAEPKCLKVNSPIRMKNGNGKGWLRLKNNMGAHEEKKEEWNNVTKAESMGLLSEDPKGSDSENSVTKNPLRKTDSCDSGITKSDLRLDKAGEARSPLEHSPSQADAKHPFYPIPEQALQTTLQEVKHELKEDIQLLSCRMTALEKQVAEILKLLSEKSVPQTSSPKPQIPLQVPPQIPCQDIFSVSRPESPESDKDEINF
